From publication PMC12040169 (PLOS Biology, 2025)
Some of the results follow.

test system: T1, CTL2-GFP (C. trachomatis L2/434/Bu, GFP-expressing); parameters: species or system HeLa; Intracellular C. trachomatis growth in HeLa cells, bulk GFP fluorescence relative to DMSO; conditions: bulk GFP, single well; 28.5 h, 10 µM; inhibitor
T1 construct: L2/434/Bu, GFP-expressing

First: CN(CC(=O)N1CCOCC1)S(=O)(=O)c1ccc2ccccc2c1 [CBK266946]
Second: COCCN1CCOC2(CCN(C(=O)c3ccc4ccccc4c3)CC2)C1c1ccccc1O (stereo not drawn) [CBK116232]
The “% of control remaining” value of the first is higher: 149.574% for the first, 81.2722% for the second.

Going from `OCCN1CCN(c2ccc(/C=C/c3ccccc3)cn2)CC1` [CBK036849] to `C(=C\c1ccccc1)/CN1CCN(CCCc2ccccc2)CC1` [CBK261897], the “% of control remaining” value falls from 184.066% to 100%.

First: CCCc1ccc(N(C)C(=O)c2ccc(C(C)(C)C)cc2)cc1 [CBK161612]
Second: COCCNC(=O)c1ccc(-c2cc(C(C)C)ccc2OC)nc1N(C)C [CBK106061]
The “% of control remaining” value of the first is lower: 79.7881% for the first, 106.553% for the second.

First: COc1cc(Nc2cc(-c3cccc(N)c3)nc3ccnn23)cc(OC)c1OC [CBK037236]
Second: COc1cc(CNc2nc(-c3c(C)cccc3C)cn3ccnc23)cc(OC)c1OC [CBK037415]
The “% of control remaining” value of the first is lower: 138.102% for the first, 165.71% for the second.

First: C=CCN1CC2(c3ccccc3)CN(CC=C)CC(c3ccccc3)(C1)C2=O [CBK265987]
Second: O=C(c1nccc2ccccc12)N1CCN(Cc2ccccc2)CC1 [CBK200176]
The “% of control remaining” value of the first is lower: 127.197% for the first, 128.772% for the second.

First: Cc1ccc2c(c1)C(NC(=O)C1CC1C)CC1(CCOCC1)O2 (stereo not drawn) [CBK284880]
Second: CC1(CNC(=O)c2ccc(N3CCCCC3)cc2)COC1 [CBK281746]
The “% of control remaining” value of the first is higher: 119.298% for the first, 106.554% for the second.

First: CCn1c(C)nn(-c2nc3c(Cl)cccc3s2)c1=O [CBK026010]
Second: CCn1c(CNC(=O)C(C)Cn2cc(Cl)cn2)nc2ccccc21 (stereo not drawn) [CBK281392]
The “% of control remaining” value of the first is lower: 125.522% for the first, 126.896% for the second.

Going from `Nn1cnn2c(SCC(=O)Nc3ccc(Cl)cc3)nnc12` [CBK025688] to `Cn1nnnc1SCC(=O)Nc1ccc(Cl)c(Cl)c1` [CBK058218], the “% of control remaining” value rises from 84.6268% to 106.616%.

Going from `CC1CN(c2ccc(CNc3ncccc3C#N)cn2)CCO1` (stereo not drawn) [CBK305957] to `COc1cccc(CC(=O)Nc2ncccc2O)c1` [CBK305047], the “% of control remaining” value falls from 101.033% to 93.8277%.

Compared with `O=c1[nH]c2ncc(-c3ccc(-c4ccccc4)cc3)nc2n1Cc1cccnc1` [CBK064282], `C[C@@H](c1ccccc1)n1c(=O)[nH]c2ncc(-c3cccc4ncccc34)nc21` [CBK064394] is lower in “% of control remaining” value: 200.998% for the first, 80.7305% for the second.

Going from `CS(=O)(=O)Nc1cc2ccccc2c(-c2ccncc2)n1` [CBK085746] to `COc1ccc(-c2cncc(NCc3ccncc3)n2)cc1` [CBK065394], the “% of control remaining” value falls from 118.548% to 90.587%.

First: O=C(O)CCCn1cc(NC(=O)Cc2ccccc2F)cn1 [CBK270119]
Second: O=C(CCN1C(=O)/C(=C\C=C\c2ccccc2)SC1=S)Nc1cc(Cl)ccc1O [CBK264792]
The “% of control remaining” value of the first is lower: 94.6366% for the first, 118.112% for the second.

First: COc1cc(/C=N/n2cnnc2)ccc1OCc1cccc(C(=O)O)c1 [CBK264249]
Second: COc1ccccc1-c1nnc(SCc2cccc(C(=O)O)c2)[nH]1 [CBK269952]
The “% of control remaining” value of the first is lower: 101.526% for the first, 141.798% for the second.

Going from `O=[N+]([O-])c1ccc(N2CCN(S(=O)(=O)Cc3ccccc3)CC2)cc1N1CCN(Cc2ccccc2)CC1` [CBK264951] to `c1ccc(CN2CCN(c3ccc(Nc4cc(-c5ccncc5)ncn4)cc3)CC2)cc1` [CBK037727], the “% of control remaining” value rises from 100.792% to 184.432%.

First: COc1cccc(C(NC(=O)C2CCN(C(=O)c3ccccc3)CC2)c2ccccn2)c1 (stereo not drawn) [CBK060036]
Second: COC(=O)C(NC(=O)c1cnc(-c2cccc(C(F)(F)F)c2)c(-c2ccncc2)c1)c1ccccc1 (stereo not drawn) [CBK037624]
The “% of control remaining” value of the first is lower: 114.699% for the first, 180.34% for the second.

First: Cc1sc2nc(C(C)C)n(C3CCNCC3)c(=O)c2c1C [CBK282407]
Second: O=C(Nc1c(F)cc(F)cc1OC1CCNCC1)c1cccnc1 [CBK050275T]
The “% of control remaining” value of the first is higher: 133.014% for the first, 112.23% for the second.

Going from `CCNC(=O)Nc1ccc2ccc(-c3cccnc3)nc2n1` [CBK070652] to `CCc1nnc(COC(=O)c2ccccc2NC(=O)Cc2ccccc2)o1` [CBK296762], the “% of control remaining” value rises from 92.4864% to 156.745%.

Going from `CC1CCN(CC(O)c2ccc3c(c2)CCCN3C(=O)C2CC2)CC1` (stereo not drawn) [CBK282488] to `CCCCN1CCC(CNc2cc(C(F)(F)F)c3scc(C(=O)NC4CCC4)c3n2)CC1` [CBK034026C], the “% of control remaining” value falls from 136.946% to 99.9775%.

First: COC(=O)c1cn([C@H]2CO[C@H]3[C@@H]2OC[C@H]3OC(=O)Nc2ccccc2)nn1 [CBK289492]
Second: COc1ccc([C@@]23CC[C@@H](NS(=O)(=O)Cc4ccccc4)C[C@@H]2N(C)CC3)cc1OC [CBK056665T]
The “% of control remaining” value of the first is higher: 118.545% for the first, 96.7553% for the second.

Going from `Cc1noc(C)c1CC(=O)Nc1nc2c(cc1C#N)CCCC2` [CBK306429] to `C[C@@H](Cn1nc2c(cc1=O)CCCC2)NC(=O)c1cccc(F)c1` [CBK284561], the “% of control remaining” value rises from 91.6921% to 157.109%.

First: O=C1N[C@@H](Cc2ccc(F)cc2)C(=O)N2CCN(C(=O)c3cccc(F)c3)C[C@H]12 [CBK289600]
Second: COc1cccc([C@H]2CC[C@H](N(CCN(C)C)C(=O)Nc3cc(F)ccc3F)CC2)c1OC [CBK050184]
The “% of control remaining” value of the first is higher: 101.511% for the first, 96.5797% for the second.

Going from `O=C(NS(=O)(=O)c1ccccc1)c1ccccc1` [CBK288429] to `CNS(=O)(=O)c1cc(C(=O)NC2CCCc3ccccc32)n(C)c1` (stereo not drawn) [CBK305048], the “% of control remaining” value rises from 87.4295% to 105.717%.

First: O=C1CC(c2ccc3c(c2)OCO3)c2ccc3ccccc3c2N1 (stereo not drawn) [CBK087469]
Second: O=c1cc(O)c2cc([N+](=O)[O-])ccc2n1CCc1ccccc1 [CBK291165]
The “% of control remaining” value of the first is lower: 100.976% for the first, 140.225% for the second.

Going from `COc1ccc2[nH]cc(CCNC(=O)CC(C)O)c2c1` (stereo not drawn) [CBK116201] to `COc1ccc(C2(C(=O)NCCc3c[nH]cn3)CC2)cc1` [CBK149834], the “% of control remaining” value rises from 102.659% to 115.353%.

Going from `CN1CC(=O)N2CCOC(C2)c2cccc(n2)NC(=O)C/C=C/CC2(CCN(Cc3ncc[nH]3)CC2)C1=O` (stereo not drawn) [CBK292196] to `CCNC(=O)N1CCc2c([nH]c3ccc(OC)cc23)C12CCN(CCOc1ccccc1)C2` (stereo not drawn) [CBK061690], the “% of control remaining” value falls from 145.638% to 119.131%.

Compared with `CN1CCC(OCCCn2ccnc2-c2nccn2C)CC1` [CBK307683], `COc1ccnc(Cn2ncc(N3CCCC3)cc2=O)c1` [CBK304379] is higher in “% of control remaining” value: 115.245% for the first, 132.467% for the second.

Going from `COc1cc(CNc2nnn[nH]2)cc(Cl)c1OC` [CBK288087] to `COC(=O)c1ccccc1S(=O)(=O)Nc1nnn[nH]1` [CBK021321], the “% of control remaining” value rises from 131.134% to 152.157%.

Compared with `CCOCCn1c(=O)c2c(nc3oc(C(C)(C)C)cn32)n(C)c1=O` [CBK307567], `CCOC(=O)c1cnn2c(C)cc(C)nc12` [CBK101119] is higher in “% of control remaining” value: 123.98% for the first, 124.292% for the second.

First: Cc1nc(CCNc2ccc(-c3nc(C)c(C)c(=O)[nH]3)cn2)cs1 [CBK305497]
Second: Cc1cnn(CCNc2cc(C(C)C)nc3ccnn23)c1 [CBK306792]
The “% of control remaining” value of the first is lower: 93.0834% for the first, 131.262% for the second.

Going from `N#C/C(=C\c1ccc(OCC(=O)c2ccccc2)cc1)c1nc(-c2cccs2)cs1` [CBK266765] to `O=C(O)Cc1csc(SCc2cc(F)cc3c2OC(c2ccccc2)OC3)n1` (stereo not drawn) [CBK295158], the “% of control remaining” value rises from 146.789% to 152.678%.

Going from `CCc1c(C)sc(NC(=O)CSc2nnnn2C)c1C(=O)OC` [CBK270312] to `CCOC(=O)C(NC(=O)c1c(C)nn(C)c1C)c1cccc(C)c1C` (stereo not drawn) [CBK304253], the “% of control remaining” value falls from 142.337% to 105.44%.

Compared with `COc1ccc(NC(=O)CCSCCC(=O)O)cc1S(=O)(=O)N1CCCCC1` [CBK296655], `O=S(=O)(c1ccc(Oc2ccc(S(=O)(=O)N3CCCCCC3)cc2)cc1)N1CCCCCC1` [CBK261729] is lower in “% of control remaining” value: 152.801% for the first, 91.9118% for the second.

First: Cc1nc(C)n(C(C)CNC(=O)Cc2coc3cc(C)c(C)cc23)n1 (stereo not drawn) [CBK282577]
Second: Cc1c(NC(=O)CSc2nnc3c4ccccc4n(C(C)C)c3n2)c(=O)n(-c2ccccc2)n1C [CBK263916]
The “% of control remaining” value of the first is higher: 115.355% for the first, 100% for the second.

First: Cc1cc(NS(=O)(=O)c2ccc(NC(=S)NC3CCCCC3)cc2)no1 [CBK268157]
Second: OC1CCC(Nc2cncc(-c3ccc(F)cc3F)n2)CC1 (stereo not drawn) [CBK065835]
The “% of control remaining” value of the first is lower: 60.4801% for the first, 98.1055% for the second.

Compared with `COc1cncc(C(NC(=O)Cc2cn3ccsc3n2)[C@H]2C[C@H](O)C2)c1` (stereo partly drawn) [CBK306642], `COc1ccc(CN2CCCC(c3nc(C)n4ccccc34)C2)cc1` (stereo not drawn) [CBK282984] is higher in “% of control remaining” value: 100.37% for the first, 123.111% for the second.

First: CC1CCCN(c2nc3nc[nH]c(=O)c3s2)C1 (stereo not drawn) [CBK288120]
Second: Cc1nc(C(F)(F)F)ccc1C(=O)N1C=CC(C(F)(F)F)=NCC1 [CBK057187]
The “% of control remaining” value of the first is higher: 148.779% for the first, 100.812% for the second.

Compared with `C=CCN(C)C(=O)[C@H]1C[C@@H](O)[C@H](O)[C@@H]2N=C(Nc3cc(C)cc(C)c3)S[C@@H]21` [CBK288948], `CN(C)C1c2cccc3cccc(c23)C1NS(C)(=O)=O` (stereo not drawn) [CBK265851] is higher in “% of control remaining” value: 122.359% for the first, 146.01% for the second.

Compared with `CC(CNC(=O)Cn1nc(C(F)(F)F)c2c1CCC2)N1CCCC1` (stereo not drawn) [CBK282212], `Cc1cc(C(F)(F)F)nc(NCc2ccco2)n1` [CBK269555] is lower in “% of control remaining” value: 142.123% for the first, 99.1324% for the second.

Going from `CO[C@H]1CNC[C@@H]1NC(=O)c1cccc2c1NCCC2` [CBK307421] to `Cn1nccc1CNCc1cc(Br)ccc1Cl` [CBK305100], the “% of control remaining” value falls from 112.212% to 106.673%.
